We go through four substances from article PMC4965873.

Protein sequences, listed by entry. Tags and fused reporters are not part of them.
UniProt P41241: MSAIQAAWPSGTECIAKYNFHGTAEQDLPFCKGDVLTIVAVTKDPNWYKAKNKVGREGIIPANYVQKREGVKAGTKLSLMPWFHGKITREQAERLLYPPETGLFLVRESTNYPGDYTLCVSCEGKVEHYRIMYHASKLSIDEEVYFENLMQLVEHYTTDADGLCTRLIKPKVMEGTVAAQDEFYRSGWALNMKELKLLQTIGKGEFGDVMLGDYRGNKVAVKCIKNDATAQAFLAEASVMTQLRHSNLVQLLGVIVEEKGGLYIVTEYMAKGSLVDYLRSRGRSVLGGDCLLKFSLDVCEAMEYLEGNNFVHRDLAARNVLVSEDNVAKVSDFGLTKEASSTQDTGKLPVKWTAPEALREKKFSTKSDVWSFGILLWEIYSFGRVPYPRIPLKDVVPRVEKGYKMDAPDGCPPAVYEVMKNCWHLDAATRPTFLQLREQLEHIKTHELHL
UniProt O08908: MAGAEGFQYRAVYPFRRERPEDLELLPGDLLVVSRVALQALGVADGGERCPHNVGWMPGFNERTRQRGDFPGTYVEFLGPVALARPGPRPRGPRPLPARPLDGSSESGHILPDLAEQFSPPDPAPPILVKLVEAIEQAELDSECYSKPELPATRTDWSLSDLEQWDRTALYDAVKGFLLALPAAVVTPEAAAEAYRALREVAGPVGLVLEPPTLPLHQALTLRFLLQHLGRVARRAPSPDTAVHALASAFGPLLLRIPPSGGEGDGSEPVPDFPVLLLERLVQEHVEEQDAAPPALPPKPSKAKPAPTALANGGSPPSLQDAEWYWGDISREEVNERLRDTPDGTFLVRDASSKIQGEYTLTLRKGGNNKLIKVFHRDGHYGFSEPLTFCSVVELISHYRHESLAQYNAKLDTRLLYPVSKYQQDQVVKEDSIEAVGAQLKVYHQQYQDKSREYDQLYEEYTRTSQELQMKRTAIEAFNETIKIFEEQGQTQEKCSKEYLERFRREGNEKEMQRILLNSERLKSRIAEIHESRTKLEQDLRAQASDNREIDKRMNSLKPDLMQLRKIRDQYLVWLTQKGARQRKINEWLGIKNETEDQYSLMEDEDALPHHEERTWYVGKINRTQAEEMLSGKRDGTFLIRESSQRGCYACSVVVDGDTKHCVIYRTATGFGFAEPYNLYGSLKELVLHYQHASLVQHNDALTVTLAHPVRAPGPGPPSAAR
UniProt P47941: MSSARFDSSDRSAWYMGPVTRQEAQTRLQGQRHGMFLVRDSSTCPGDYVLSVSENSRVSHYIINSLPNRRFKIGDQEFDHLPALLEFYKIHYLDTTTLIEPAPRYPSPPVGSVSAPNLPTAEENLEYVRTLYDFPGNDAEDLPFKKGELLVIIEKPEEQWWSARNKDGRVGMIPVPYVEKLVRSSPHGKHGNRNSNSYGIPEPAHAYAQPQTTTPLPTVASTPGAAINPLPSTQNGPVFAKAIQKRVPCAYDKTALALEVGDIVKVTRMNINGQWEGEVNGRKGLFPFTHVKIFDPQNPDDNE
UniProt Q3TTA7: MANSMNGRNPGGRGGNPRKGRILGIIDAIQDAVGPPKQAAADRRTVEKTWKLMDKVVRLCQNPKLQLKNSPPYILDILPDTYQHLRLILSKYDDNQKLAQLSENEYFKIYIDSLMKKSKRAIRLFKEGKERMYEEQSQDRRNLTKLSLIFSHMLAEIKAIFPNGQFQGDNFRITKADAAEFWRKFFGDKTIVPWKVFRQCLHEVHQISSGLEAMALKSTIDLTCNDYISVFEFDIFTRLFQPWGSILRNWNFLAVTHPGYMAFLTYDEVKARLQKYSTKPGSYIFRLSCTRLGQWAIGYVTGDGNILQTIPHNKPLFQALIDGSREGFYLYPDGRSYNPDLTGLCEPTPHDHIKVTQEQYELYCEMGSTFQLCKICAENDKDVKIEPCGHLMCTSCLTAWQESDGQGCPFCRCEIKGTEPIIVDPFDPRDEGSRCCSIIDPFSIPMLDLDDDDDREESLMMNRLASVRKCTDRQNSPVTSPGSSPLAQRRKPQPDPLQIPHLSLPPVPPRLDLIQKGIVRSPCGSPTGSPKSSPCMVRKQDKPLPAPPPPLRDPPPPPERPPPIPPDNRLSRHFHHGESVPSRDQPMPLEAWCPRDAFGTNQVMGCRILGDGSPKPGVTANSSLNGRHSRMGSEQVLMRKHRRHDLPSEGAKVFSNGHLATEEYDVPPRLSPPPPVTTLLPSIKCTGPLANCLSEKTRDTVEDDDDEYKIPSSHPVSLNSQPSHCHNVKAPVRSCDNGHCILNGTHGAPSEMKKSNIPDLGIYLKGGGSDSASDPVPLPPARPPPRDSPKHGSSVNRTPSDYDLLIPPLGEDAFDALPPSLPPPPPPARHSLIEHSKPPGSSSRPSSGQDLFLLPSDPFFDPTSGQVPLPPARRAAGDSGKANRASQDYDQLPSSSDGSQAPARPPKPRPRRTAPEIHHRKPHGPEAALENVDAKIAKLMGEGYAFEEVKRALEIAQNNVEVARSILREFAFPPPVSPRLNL
UniProt P42337: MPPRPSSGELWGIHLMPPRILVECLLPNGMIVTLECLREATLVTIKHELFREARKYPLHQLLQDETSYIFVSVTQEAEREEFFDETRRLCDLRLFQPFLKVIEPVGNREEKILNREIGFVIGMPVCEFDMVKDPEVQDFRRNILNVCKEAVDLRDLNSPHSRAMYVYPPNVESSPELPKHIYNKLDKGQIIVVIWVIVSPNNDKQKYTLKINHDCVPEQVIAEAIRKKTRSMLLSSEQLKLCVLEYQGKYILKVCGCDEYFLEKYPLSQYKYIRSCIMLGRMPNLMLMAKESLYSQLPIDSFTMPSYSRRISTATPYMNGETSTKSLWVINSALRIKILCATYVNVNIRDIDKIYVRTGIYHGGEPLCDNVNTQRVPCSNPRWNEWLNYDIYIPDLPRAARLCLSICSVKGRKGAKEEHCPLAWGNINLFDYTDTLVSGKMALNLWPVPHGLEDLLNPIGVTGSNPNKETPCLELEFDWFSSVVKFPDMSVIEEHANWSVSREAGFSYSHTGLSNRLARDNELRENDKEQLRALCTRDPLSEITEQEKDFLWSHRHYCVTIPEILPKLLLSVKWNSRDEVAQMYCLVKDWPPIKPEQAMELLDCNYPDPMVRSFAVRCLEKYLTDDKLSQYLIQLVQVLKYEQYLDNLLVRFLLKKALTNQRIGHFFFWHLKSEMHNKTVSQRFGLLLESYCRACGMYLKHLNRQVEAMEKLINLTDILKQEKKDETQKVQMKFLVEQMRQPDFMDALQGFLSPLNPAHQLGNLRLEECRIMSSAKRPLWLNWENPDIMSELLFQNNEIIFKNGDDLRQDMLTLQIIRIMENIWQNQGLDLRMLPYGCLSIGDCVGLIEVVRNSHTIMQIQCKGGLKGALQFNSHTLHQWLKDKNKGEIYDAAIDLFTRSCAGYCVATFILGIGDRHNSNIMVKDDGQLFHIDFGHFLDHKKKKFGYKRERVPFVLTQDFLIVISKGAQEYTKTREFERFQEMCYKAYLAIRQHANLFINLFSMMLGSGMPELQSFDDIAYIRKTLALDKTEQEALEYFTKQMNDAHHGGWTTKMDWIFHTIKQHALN

These are yes or no findings as the source states them, for the method shown. Binding seen in cells or lysates may run through a third protein. Some entries that bind do so weakly or less than the wild type.

Holding throughout (test): co-IP; immunoprecipitation (1.5 h, Pansorbin) with anti-CBL, anti-CBLB, anti-CSK, anti-CRKL or anti-p85-PI3K from lysates (n-dodecyl-β-maltoside) of expanded mouse CD4+ T cells, unstimulated or stimulated 1 min with anti-CD3 + anti-CD4; immunoblot; isotype control; cells of wild-type, Cblb-/-, Cbl-/- and Cd5-/- mice
In general terms: In western blotting, separated proteins are transferred to a membrane and probed.

Assay [1] concerns the target CSK (mouse (endogenous in CD4+ T cells)) (UniProt P41241).
For assay [2], the target named is PIK3R2 (mouse (endogenous in CD4+ T cells)) (UniProt O08908).
In assay [3] the target is CRKL (mouse (endogenous in CD4+ T cells)) (UniProt P47941).

For the substance CBLB (from UniProt Q3TTA7 1-982), the binding result in assay [1] is “binds”.

As to CRKL (from UniProt P47941 1-303), the binding result in assay [1] is “no binding”.

On to “PIK3CA (from UniProt P42337 1-1068) (enzyme)”, for which the binding entry in assay [1], in assay [2] and in assay [3] was “binds” each time.

Take PIK3R2 (from UniProt O08908 1-722): the binding result in assay [1] and in assay [3] was “binds” each time.
